Measured values reported in publication PMC6109181.
No constants are given. Whether binding was seen depends on the method and setting. In cells and extracts the contact can be indirect. Some binding calls cover weakened binding; strength is not graded here.

Chains of the proteins cited; added tags and fusions are not shown. Residues count along the entry.
UniProt P58281, residues 88-960: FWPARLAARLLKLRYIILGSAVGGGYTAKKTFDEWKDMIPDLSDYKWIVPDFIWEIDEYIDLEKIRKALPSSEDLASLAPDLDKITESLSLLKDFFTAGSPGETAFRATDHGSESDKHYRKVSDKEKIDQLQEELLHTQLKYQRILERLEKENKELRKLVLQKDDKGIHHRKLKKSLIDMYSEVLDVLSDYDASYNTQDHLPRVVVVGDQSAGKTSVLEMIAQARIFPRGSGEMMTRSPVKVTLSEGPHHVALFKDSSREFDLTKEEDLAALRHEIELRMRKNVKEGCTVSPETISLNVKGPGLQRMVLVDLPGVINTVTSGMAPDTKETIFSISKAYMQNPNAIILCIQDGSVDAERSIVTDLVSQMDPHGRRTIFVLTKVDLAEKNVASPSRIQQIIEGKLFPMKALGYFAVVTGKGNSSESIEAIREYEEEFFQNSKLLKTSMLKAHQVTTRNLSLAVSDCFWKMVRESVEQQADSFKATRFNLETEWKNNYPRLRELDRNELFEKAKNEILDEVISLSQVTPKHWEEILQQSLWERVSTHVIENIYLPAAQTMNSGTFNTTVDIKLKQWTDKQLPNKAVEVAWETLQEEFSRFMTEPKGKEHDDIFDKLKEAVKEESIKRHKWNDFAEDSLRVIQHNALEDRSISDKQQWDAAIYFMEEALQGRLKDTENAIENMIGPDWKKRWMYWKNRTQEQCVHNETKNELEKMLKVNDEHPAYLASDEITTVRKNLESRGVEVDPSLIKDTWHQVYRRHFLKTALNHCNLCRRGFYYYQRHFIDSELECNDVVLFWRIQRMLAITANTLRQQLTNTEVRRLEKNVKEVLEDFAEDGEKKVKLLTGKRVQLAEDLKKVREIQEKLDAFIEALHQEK
UniProt P56480, residues 47-529: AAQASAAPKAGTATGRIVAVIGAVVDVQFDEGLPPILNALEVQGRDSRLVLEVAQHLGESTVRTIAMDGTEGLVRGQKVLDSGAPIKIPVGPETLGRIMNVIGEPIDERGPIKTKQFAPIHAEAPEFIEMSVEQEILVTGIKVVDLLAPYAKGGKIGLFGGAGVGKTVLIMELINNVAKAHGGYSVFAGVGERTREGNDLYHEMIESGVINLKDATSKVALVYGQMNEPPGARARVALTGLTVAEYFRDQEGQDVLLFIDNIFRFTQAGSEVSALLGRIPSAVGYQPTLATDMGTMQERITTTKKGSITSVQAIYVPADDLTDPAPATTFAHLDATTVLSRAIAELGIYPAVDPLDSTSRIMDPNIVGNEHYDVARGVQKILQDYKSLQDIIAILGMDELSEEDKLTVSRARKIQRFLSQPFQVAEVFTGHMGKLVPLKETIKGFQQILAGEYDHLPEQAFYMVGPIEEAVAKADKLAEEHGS

What was measured:
[1] = target: Optic atrophy 1 (OPA1) (mouse (endogenous in mitochondria of MAFs or mouse heart)) (UniProt P58281); experiment: co-IP; mitochondrial lysates (150 mM NaCl, 25 mM Tris-Cl pH 7.4, 1 mM EDTA, 5% glycerol, 0.1% Triton X-100) immunoprecipitated overnight at 4 °C with antibodies coupled to Protein A agarose beads; SDS-PAGE and immunoblot
[2] = target: Optic atrophy 1 (OPA1) (mouse (endogenous in mitochondria of MAFs or mouse heart)) (UniProt P58281); experiment: cross-linking; purified mitochondria (methods: mitochondrial extracts, 50 µg) treated with 10 mM of the zero-length crosslinker EDC for 30 min at 37 °C in PBS, quenched with 15 mM DTT; SDS-PAGE and immunoblot for OPA1 and ATP5B
[3] = target: ATP5B (ATP synthase β-subunit) (mouse (endogenous in mitochondria of MAFs)) (UniProt P56480); experiment: co-IP; mitochondrial lysates (150 mM NaCl, 25 mM Tris-Cl pH 7.4, 1 mM EDTA, 5% glycerol, 0.1% Triton X-100) immunoprecipitated overnight at 4 °C with antibodies coupled to Protein A agarose beads; SDS-PAGE and immunoblot

| Substance | binding [1] | binding [2] | binding [3] |
| --- | --- | --- | --- |
| ATP5B (ATP synthase β-subunit) (from UniProt P56480 47-529) | binds | binds |  |
| Optic atrophy 1 (OPA1) (from UniProt P58281 88-960) |  |  | binds |
